# Measured values as given in the supplement of paper PMC4604168 (melanoma cell lines).
# Some of the results follow. Repeats are few or missing, and single values can be far off.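 Cells were imaged in 1,536-well plates, and nuclei stained with an antibody against cleaved PARP were counted against all DNA-stained nuclei to give the apoptosis fraction. Screening doses were chosen to leave most cells alive, and resting and induced cleaved-PARP levels differ strongly between cell lines.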
# Test system: CBRC008 (line from a melanoma biopsy)
# Test: cleaved PARP positive nuclei fraction relative to DMSO control; melanoma cells; higher = more apoptosis
# Details: library dose: low library concentration; 72 h
row,Compound,cleaved PARP positive nuclei fraction [%]
1,"O=C(Nc1cccc(Cl)c1)Nc1ncc(CCNc2ncnc3ccsc23)s1 + O=C(O)c1ccc(-c2c[nH]c3ncc(-c4ccccc4)cc23)cc1C1CCCC1 [GSK650394] (first compound 0.0008 µM, partner dose 0.16 µM)",533
2,"O=C(Nc1cccc(Cl)c1)Nc1ncc(CCNc2ncnc3ccsc23)s1 + CN(NC(=O)CC(=O)NN(C)C(=S)c1ccccc1)C(=S)c1ccccc1 [STA4783] (first compound 0.0008 µM, partner dose 0.006 µM)",2060
3,"Cc1nc(Nc2ncc(C(=O)Nc3c(C)cccc3Cl)s2)cc(N2CCN(CCO)CC2)n1 [dasatanib] + C[C@]1(c2nc3c(C(N)=O)cccc3[nH]2)CCCN1 [Veliparib] (first compound 0.004 µM, partner dose 1.4 µM)",73.4
4,"NC(=O)Nc1cc(-c2cccc(F)c2)sc1C(=O)N[C@H]1CCCNC1 + O=C(Nc1cccc(Cl)c1)Nc1ncc(CCNc2ncnc3ccsc23)s1 [SNS314] (first compound 0.02 µM, partner dose 0.0008 µM)",65.7
5,"CC1(C)NC(=O)N(c2ccc([N+](=O)[O-])c(C(F)(F)F)c2)C1=O [nilutamide] + CO[C@@H]1[C@H](N(C)C(=O)c2ccccc2)C[C@H]2O[C@]1(C)n1c3ccccc3c3c4c(c5c6ccccc6n2c5c31)C(=O)NC4 [Midostaurin] (first compound 1 µM, partner dose 0.08 µM)",74.4
6,"OCc1c[nH]c2ccccc12 [Indole-3-carbinol] + Clc1ccc(Nc2nnc(Cc3ccncc3)c3ccccc23)cc1 [vatalanib] (first compound 0.8 µM, partner dose 2 µM)",164
7,"C=CCNC1=C2C[C@@H](C)C[C@H](OC)[C@H](O)[C@@H](C)/C=C(\C)[C@H](OC(N)=O)[C@@H](OC)/C=C\C=C(/C)C(=O)NC(=CC1=O)C2=O [Tanespimycin] + Cn1nnc2c(C(N)=O)ncn2c1=O [temozolomide] (first compound 0.002 µM, partner dose 2 µM)",137
8,"Clc1ccc(Nc2nnc(Cc3ccncc3)c3ccccc23)cc1 [vatalanib] + COc1cc(Nc2ncc(F)c(Nc3ccc4c(n3)NC(=O)C(C)(C)O4)n2)cc(OC)c1OC [Tamatinib] (first compound 2 µM, partner dose 0.4 µM)",318
9,"Cc1ccc(NC(=O)c2cccc(N(C)C)c2)cc1NC(=O)c1ccc(O)cc1 + CC(C)(C)c1cnc(CSc2cnc(NC(=O)C3CCNCC3)s2)o1 [SNS-032] (first compound 2 µM, partner dose 0.01 µM)",27.9
10,"Cc1nc(Nc2ncc(C(=O)Nc3c(C)cccc3Cl)s2)cc(N2CCN(CCO)CC2)n1 [dasatanib] + NC(=O)Nc1cc(-c2cccc(F)c2)sc1C(=O)N[C@H]1CCCNC1 [AZD7762] (first compound 0.004 µM, partner dose 0.02 µM)",54.8
11,"C#Cc1cccc(Nc2ncnc3cc(OCCOC)c(OCCOC)cc23)c1 [erlotinib] + COc1ccc(Cl)c(Nc2nc3ccccc3nc2NS(=O)(=O)c2cccc(NC(=O)C(C)(C)N)c2)c1 [XL147] (first compound 0.8 µM, partner dose 0.8 µM)",170
12,"C[C@]1(c2nc3c(C(N)=O)cccc3[nH]2)CCCN1 [Veliparib] + Cc1cc(N2CCOCC2)cc2[nH]c(-c3c(NC[C@@H](O)c4cccc(Cl)c4)cc[nH]c3=O)nc12 [BMS536924] (first compound 1.4 µM, partner dose 0.2 µM)",202
13,"CC(=O)c1c(C)c2cnc(Nc3ccc(N4CCNCC4)cn3)nc2n(C2CCCC2)c1=O [palbociclib] + O=S(=O)(c1ccccc1)N(CC(F)(F)F)c1ccc(C(O)(C(F)(F)F)C(F)(F)F)cc1 [T0901317] (first compound 0.04 µM, partner dose 1.4 µM)",64.4
14,"Cc1nc(Nc2ncc(C(=O)Nc3c(C)cccc3Cl)s2)cc(N2CCN(CCO)CC2)n1 [dasatanib] + CN(C)S(=O)(=O)c1ccc2c(c1)/C(=C/c1cc3c([nH]1)CCCC3)C(=O)N2 [SU6656] (first compound 0.004 µM, partner dose 0.4 µM)",64.1
15,"CC(=O)c1c(C)c2cnc(Nc3ccc(N4CCNCC4)cn3)nc2n(C2CCCC2)c1=O [palbociclib] + COc1cc(Nc2ncc(F)c(Nc3ccc4c(n3)NC(=O)C(C)(C)O4)n2)cc(OC)c1OC [Tamatinib] (first compound 0.04 µM, partner dose 0.4 µM)",68
16,"CO[C@@H]1[C@H](N(C)C(=O)c2ccccc2)C[C@H]2O[C@]1(C)n1c3ccccc3c3c4c(c5c6ccccc6n2c5c31)C(=O)NC4 [Midostaurin] + CN(NC(=O)CC(=O)NN(C)C(=S)c1ccccc1)C(=S)c1ccccc1 [STA4783] (first compound 0.08 µM, partner dose 0.006 µM)",2050
17,"Nc1cccc2c1CN(C1CCC(=O)NC1=O)C2=O (stereo not given) [lenalidomide] + COc1cc2c(Oc3ccc4[nH]c(C)cc4c3F)ncnc2cc1OCCCN1CCCC1 [cediranib] (first compound 1 µM, partner dose 0.4 µM)",105
18,"OCc1c[nH]c2ccccc12 [Indole-3-carbinol] + NCC(=O)Nc1ccc(-n2nc(C(F)(F)F)cc2-c2ccc3c(ccc4ccccc43)c2)cc1 [OSU03012] (first compound 0.8 µM, partner dose 1 µM)",50.6
19,"C#Cc1cccc(Nc2ncnc3cc(OCCOC)c(OCCOC)cc23)c1 [erlotinib] + OCCn1cc(-c2cnc3nnn(Cc4ccc5ncccc5c4)c3n2)cn1 [PF04217903] (first compound 0.8 µM, partner dose 1 µM)",68.2
20,"COCC[n+]1c2c(n(Cc3cnccn3)c1C)C(=O)c1ccccc1C2=O + CN(C)S(=O)(=O)c1ccc2c(c1)/C(=C/c1cc3c([nH]1)CCCC3)C(=O)N2 [SU6656] (first compound 0.0004 µM, partner dose 0.4 µM)",993
21,"C=CCn1c(=O)c2cnc(Nc3ccc(N4CCN(C)CC4)cc3)nc2n1-c1cccc(C(C)(C)O)n1 + CN(NC(=O)CC(=O)NN(C)C(=S)c1ccccc1)C(=S)c1ccccc1 [STA4783] (first compound 0.02 µM, partner dose 0.006 µM)",1570
22,"C=CCNC1=C2C[C@@H](C)C[C@H](OC)[C@H](O)[C@@H](C)/C=C(\C)[C@H](OC(N)=O)[C@@H](OC)/C=C\C=C(/C)C(=O)NC(=CC1=O)C2=O [Tanespimycin] + COc1ccc(-c2ccc3c(N4CCOCC4)nc(N4C[C@@H](C)O[C@@H](C)C4)nc3n2)cc1CO [KU0063794] (first compound 0.002 µM, partner dose 0.02 µM)",204
23,"CC(=O)c1c(C)c2cnc(Nc3ccc(N4CCNCC4)cn3)nc2n(C2CCCC2)c1=O [palbociclib] + COc1ccc(COc2ccc(Cc3cnc(N)nc3N)cc2OC)cc1 [GW2580] (first compound 0.04 µM, partner dose 1 µM)",75.7
24,"C[C@]1(c2nc3c(C(N)=O)cccc3[nH]2)CCCN1 [Veliparib] + COc1cc2c(Oc3ccc4[nH]c(C)cc4c3F)ncnc2cc1OCCCN1CCCC1 [cediranib] (first compound 1.4 µM, partner dose 0.4 µM)",109
25,"C=CCn1c(=O)c2cnc(Nc3ccc(N4CCN(C)CC4)cc3)nc2n1-c1cccc(C(C)(C)O)n1 + OCCn1cc(-c2cnc3nnn(Cc4ccc5ncccc5c4)c3n2)cn1 [PF04217903] (first compound 0.02 µM, partner dose 1 µM)",149

# 2 entries drawn at random from the list so far:
row,Compound,cleaved PARP positive nuclei fraction [%]
25,"C=CCn1c(=O)c2cnc(Nc3ccc(N4CCN(C)CC4)cc3)nc2n1-c1cccc(C(C)(C)O)n1 + OCCn1cc(-c2cnc3nnn(Cc4ccc5ncccc5c4)c3n2)cn1 [PF04217903] (first compound 0.02 µM, partner dose 1 µM)",149
24,"C[C@]1(c2nc3c(C(N)=O)cccc3[nH]2)CCCN1 [Veliparib] + COc1cc2c(Oc3ccc4[nH]c(C)cc4c3F)ncnc2cc1OCCCN1CCCC1 [cediranib] (first compound 1.4 µM, partner dose 0.4 µM)",109
